Publication PMC4860834
No constants are given. Whether binding was seen depends on the method and setting. In cells and extracts the contact can be indirect. Some binding calls cover weakened binding; strength is not graded here. For part of these data: Where a sequence is shown, tags or fusion partners need not be part of it.

Legend:
[1] = biological target: T1, dysbindin-1A protein (in transfected cells, crosslinking experiment) (human), Q96EV8; test: cross-linking; crosslinking experiments in transfected cells; details: remark: other sources report otherwise
T1 chain: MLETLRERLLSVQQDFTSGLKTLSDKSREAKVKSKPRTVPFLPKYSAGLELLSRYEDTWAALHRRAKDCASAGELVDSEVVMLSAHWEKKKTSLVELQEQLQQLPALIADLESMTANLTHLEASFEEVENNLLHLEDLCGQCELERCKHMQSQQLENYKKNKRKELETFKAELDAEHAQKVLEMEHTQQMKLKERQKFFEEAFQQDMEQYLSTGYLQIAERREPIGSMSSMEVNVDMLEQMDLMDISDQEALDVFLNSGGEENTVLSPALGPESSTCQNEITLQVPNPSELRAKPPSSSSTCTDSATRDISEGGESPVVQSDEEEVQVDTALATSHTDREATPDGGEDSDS

[2] = biological target: T2, His-tagged dysbindin-1A (human), Q96EV8; test: pull-down; His-tag pull-down: purified His-tagged bait (His-dysbindin-1A or His-Smt3) incubated with cell lysates holding HA-tagged dysbindin-1A or -1B; HA-tagged proteins detected in the pull-down fraction; only the target purified; details: remark: other sources report otherwise
T2 chain: T1 chain

[3] = biological target: His-Smt3 [SUMO: Q12306]; test: as above

B1: dysbindin-1A protein (in transfected cells, crosslinking experiment), Q96EV8-1 1-351 (protein)
chain: T1 chain
B1 was tested, and the binding [1] was “binds”.

B2: HA-tagged dysbindin-1A, Q96EV8-1 1-351 (protein)
chain: T1 chain
In the case of B2, the binding [2] is reported as “binds”.

B3: HA-tagged dysbindin-1A (protein, UniProt Q96EV8-1 1-351)
chain: T1 chain
With B3 the binding [3] was “no binding”.
